Experimental data as given in paper PMC11234209.
These are yes or no findings as the source states them, for the method shown. In cells and extracts the contact can be indirect. Here binding means that the protein was enriched with, or labelled near, the bait; the list need not be complete.

Sequences of proteins named here, by UniProt entry; tags and fusion partners are left off.
UniProt P54578: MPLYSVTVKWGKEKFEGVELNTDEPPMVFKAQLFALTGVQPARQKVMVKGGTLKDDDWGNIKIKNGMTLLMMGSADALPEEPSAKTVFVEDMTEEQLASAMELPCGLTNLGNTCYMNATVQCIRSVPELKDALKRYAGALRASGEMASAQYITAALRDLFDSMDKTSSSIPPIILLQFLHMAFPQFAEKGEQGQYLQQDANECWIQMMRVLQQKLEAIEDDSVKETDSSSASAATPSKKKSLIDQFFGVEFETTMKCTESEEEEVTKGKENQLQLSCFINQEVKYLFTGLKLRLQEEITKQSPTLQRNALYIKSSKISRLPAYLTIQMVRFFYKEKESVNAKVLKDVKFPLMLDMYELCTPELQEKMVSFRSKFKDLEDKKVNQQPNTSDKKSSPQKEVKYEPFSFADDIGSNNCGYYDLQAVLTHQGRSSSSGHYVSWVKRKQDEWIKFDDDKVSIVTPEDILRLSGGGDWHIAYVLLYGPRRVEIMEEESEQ

Target: ubiquitin-specific protease 14 (USP14), endogenous (human (endogenous in PLC-R)) (UniProt P54578)
Assay: affinity purification with mass spectrometry; PLC-R cell lysate immunoprecipitated with anti-USP14 or IgG antibodies, protein A/G magnetic beads, gel, mass spectrometry

binding: binds
B1: calcium- and integrin-binding protein 1 (CIB1), endogenous (protein, UniProt Q99828 1-191)
chain: MGGSGSRLSKELLAEYQDLTFLTKQEILLAHRRFCELLPQEQRSVESSLRAQVPFEQILSLPELKANPFKERICRVFSTSPAKDSLSFEDFLDLLSVFSDTATPDIKSHYAFRIFDFDDDGTLNREDLSRLVNCLTGEGEDTRLSASEMKQLIDNILEESDIDRDGTINLSEFQHVISRSPDFASSFKIVL
